From PMC9466652
No constants are given. Whether binding was seen depends on the method and setting. Binding seen in cells or lysates may run through a third protein. Some results given as binding are weak or reduced against the parent protein; the word gives no strength. Where a sequence is shown, tags or fusion partners need not be part of it.

T1: HSPC300-eGFP (Dictyostelium) (UniProt Q54X65)
T1 sequence: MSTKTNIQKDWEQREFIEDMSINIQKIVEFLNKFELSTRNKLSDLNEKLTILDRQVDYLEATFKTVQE

B1: Pir121 (protein, UniProt Q6UK63 1-1336)
chain: MSVDPKQSKIADVFERCDVLESFPFHDDQSEIEEQSPSIGYDAYDKSLNYTDRGAYETQWSEETIGMEKMEEVLKQGDSFINMVYTYRSCSKALPTVKTAEQVNKTQIYEGNFEVLEPEIKKLKDFMYFQKDTIKLFCDHIKKLASTYDKKKETISASESFINYLVRILDLLAILDALKNMKACLNNDFSFFKRATGFLRKQMSGTEDQTQENHTLYLFLANQNSITSSLKLELHNIDKFDDILPMIVNQCADYLEQEKYILPSEKHCLLRVMPFVLFLIDENDSKHNINKNKNLNISRYAKIFKKNPVVPLYGDMQITLESLVKRSPHFDEKAWGTSTLDSKSALDYEIIHVLDQTRSLYNEYMARFANMVNEIRAAKARGPKEPLPLAESDIQAITLMGLRILSDWTSRVLQQSAWKYSKPNNDPTISATFDYERVVKFNYTKEERTALVQLIAMIKSLASLMMKSETLLQPILRKTIHQELQEFVQINLKETIKSFVKNNPKKKDNIKLEMSQLKNISVDWFSGFEPAEAVPNKKSKEVEEKVQIPARAVPPSPTQLELILTLVSSLMDKKKDFSSDQYRDFEAFSSKAFFYRYLLSLSSSIISITDLADLWYREFYLELNNRVQFPIETSLPWILTDHILESDDPSLIEHLFYPLGLYNDTAQRALLSLNQRFLYDEIEAELNLCFDQLLYKLSGKVYTHFKTQASSILLDKPYKTQLELAHFNGKLHTPKSRFDVLLRQKHITLLGRSIDLCGLLAQRQNNTIRQNLDYAISRFEACDLTSIVELETQIANIKLTHKLLSEYFDIDPFESIFNEINESTSLVSYHGRIVLHIIFELVADFAPNYTFNSITQRFIKAPYTFTEELKRDALPKTNPVFLFGNKYLNAAYANSIELYKNFIGVPHIQSILRIVGKKNLPLIVAEVLRNIEIKITNVLSPYVSELLQGMPASTKLPIYDYGTEGGYGYFQLKLKDIYIYPDLRPEVLQTFRELGNSLVFMNLLDQVITQTDSYNFAKAAPFLGITPETWKDLEPSTEDPTLQSPLYSQLQKLAQLLESRPEVAKSSQSLNDMVANAWRADKFYRPSEQNFSLFKSVLQRFSSILNIVRHDWSGAPPDNGVICVDSSTEFYRLWSALQFVICWPLSNENDKSFHELFGDGLMWAGCSLIHFLGQQYRFELFDFCYHILNVEEAAAVRSDKPALKNFFKNAQIIKDINNQIFSILNTYCPPPPPSNMILSPPATEQAEQFIVTTTVEEQSIQQQQQQQQQQQLQQSTSNSGSSLSLSAAGAPPPPPPPSTNGLPPPPPMAEYEMSSSIDDFAPPPPPPFGMPPPPPM
B2: Nap1 (protein, UniProt Q869Q3 1-1160)
chain: MAHTNLPEKFQVVIENGENILQRVYNTYKLFQNNKVKPSFFNDEKISKILKNLIAKYPELPENNDKSITGFDLLTSRAKQHLEELEDHYYTITDAYDWKEASFILMQEISSNTVSINFNNNIQLCSKFLDVLVLYGKINYLVSLIPDKKIITAVYAKLFLYTRSASEPTFSKMGRWINDIEQPFKKIQEEFRVLNDAVGHALSSFELTYAKRRVITQLRKDGALNLILKPEDIARPVQDSYRIELAYAGRIQQWILFGYLFAPGTLSTPQSIELLRFTLSECFYLSVFKDISISIHNEFNTLFKNYKSKTINLQKQKKIIKDAAQASTQEAPRKHAERRVYIRQELEAMWNLFRDKPCLLAPKINVLLAALSMAKEEIFWYFRHTDVIPPEKVKKFYNKQNEVREKRISSLLSLVDHLVQLVHTHKKMIQNYYLEYISGADILGLQKVITPQLLQNAGSIVTQAVNTIVNELKSLNANGQDYSFEGFRANWMRLGYLLQSNSCPLKESESKQITSRLNLIYTHSKNVDCLDQLLDEYGNMTQLWSYKEPLFHSFDAAIVDMTCDQPSHSMIYLKLLSQFPNHVANQFYPEEKELIGKECVELANSCLTKITNRIVSIMANTIASTFLSDEQQLADVNAAFPLLQKKKDWKPPKDFVPPIEPASESQFRNRANLEQLRSEEKNAFQLCTALNEFLDITIYDHIFVPREFLREKLGSALKQYMRQSIQPPAPTSSSSQIDINITRLSTYESQLRVFIGVLILVENHVDIDIGDLIRETILTEFYAKALGKSGRVDWFPEGEIEMNELTLHSITSYYVDLVSKKLNTPGVVFSPVKLGFISKAGTPFRAEEHADLTEMRALCDLVGPYGIKVIEREILRFILTTTTSMKEILSLNAANLEEFASNYYKPKAMELLKKFKTTDLDLIVTKSIAIGNALHLRSMIRESMKDVITDNFPYINNAVANAFDQYNRNTFMFPDFLGVDTLALDSGLNVGIADQYLKVILRKVSSEADKRIWELLPVMFSLTFYGNIWKETQYKATIDAHSNNVHVLSKTIIDLLIAFGAINSTTGNEAELFQSFKRFLEISSVNILRMFKGKQGEKFVPNEIQSVIIFLDKFTQQCPLLSKDSLEQYIPYSLIRNMYKDLYEHKNLQKQQSETSEQNF
B3: Scar (protein, UniProt Q54NF8 1-443)
chain: MVLITRYLPSVTDNNQPALEGQSKDQIVDTVITSTTVGIINQLTMLVAHSNSIFTALANDANLVTQRIEKLGSRIRPLIQSIPSIEDYHRNTSIDTMNSKPRAEFHADNSERNQHFTHASIPASINTVYEKCKPPPNLQLLDPYMDDGQKSLKLYTNPDFFMDEWVAEQQKLHEEARQRKRERREARLKKKGEKNEVEVKKVKSVTKVRYDPVTGEKITINIESPHTSSPQIQHQSNNTATPQHTTQHFGTNQYQAPPPPPLSQSSPSQQHSPINSYTPPPPPLNTSTPSPSSSFQGRPPSTGFNTPPPPMSNNNNMPPPPPMQQNGGAANNRLSVHNSAPIVAAPAPPPPPPPPSAPAPPPPPMAKAGGGASDIKPKASGARSDLLSSIMQGMALKPAEERKVAEAPKKEEALNVADILARRIAWAGDSDSSEDESDDSDWD
B4: Abi (protein, UniProt Q55FT9 1-332)
chain: MSESIDINVYSQTTIPNAMAELMDNHNKMEQISAYCKSLYANGDAAQAYEQTQGYAKNALLNVAYHIQTVGTHITSLLQLQTNEMEKLNIEIQTLTQRVRMIHDSTGTNVFSNQDAAKPYKSSLKNRKVDTEATKAPVKYVHKPISYGISASDINQNGVPPPLNHSNSSANLTSSSGHLAASSTSNSSTPSYQSPSYSSQPTISSGTPPPIQKQPPRVGNAPPPPSLSVPAAPPPPVMNVPPPPPTSQRPSSVNNNAPSNDFPPPPPPSSSSSGGDLPPPPSFGLPPPPTLGDDFPPPPPPPVGSYDFPPPPARPQSQFYDHNDFPPPPPPM

What follows are binders tested against T1, HSPC300-eGFP (Dictyostelium) (assay: pull-down; GFP-TRAP pulldown of HSPC300-eGFP expressed in Ax2, pkbA-, pkgB- and pkbA-/pkgB- cells; western blot for Pir121, Nap1, Scar, Abi and GFP).

binding, binds:
B1, B2, B3, B4
